These results are taken from paper PMC8620773.

Amino acid sequences for entries named in this document (tags omitted). A change or cut given only in a name is not applied to a line headed by its entry.
UniProt P28066: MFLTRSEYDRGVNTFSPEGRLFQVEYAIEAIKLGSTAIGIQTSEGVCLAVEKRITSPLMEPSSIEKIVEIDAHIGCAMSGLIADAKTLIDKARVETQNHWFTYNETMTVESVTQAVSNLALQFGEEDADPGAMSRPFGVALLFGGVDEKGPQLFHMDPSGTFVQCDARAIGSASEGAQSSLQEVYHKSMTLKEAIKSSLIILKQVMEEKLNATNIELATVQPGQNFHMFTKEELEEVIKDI

Results are given in words; binding and its absence hold for the method and conditions named. In cells and extracts the contact can be indirect. Some results given as binding are weak or reduced against the parent protein; the word gives no strength.

The experiment has as its target α5 (WT)-TBHA (UniProt P28066). Put plainly: pull-down; High Capacity Streptavidin Agarose captures the biotinylated TBHA-tagged bait from lysates of stably expressing 293T cells (TBSN buffer: 50 mM Tris pH 7.5, 125 mM NaCl, 0.5% NP-40, 1 mM ATP, 5 mM MgCl2), 4 °C; Western blot; cells with or without nocodazole (100 ng/mL, 16 h). A general note: In western blotting, separated proteins are transferred to a membrane and probed.

Turning to “HA-PLK1 (from UniProt P53350 1-603) (enzyme)”, the binding result is “binds”. Under “endogenous α5 (from UniProt P28066-1 1-241)” stands “binds”.
